Record: PubChem BioAssay AID1224830 (NIAID, 2016)
Assay: 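Regulators of TLR4 signalling towards TNF-alpha in macrophage-like cells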 (primary screen). Cell system: human THP-1 monocytic leukaemia cells, TNF dual-luciferase reporter clone, PMA-differentiated to macrophage-like cells. Knock-down reagent: siRNA pool against human genes, 50 nM. Duration: LPS for 4 h, given about 3 days after siRNA transfection. Challenge: bacterial LPS (TLR4 ligand), 10 ng/ml. Detection: 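TNF firefly reporter luminescence divided by renilla, normalised to the plate median, then turned into a robust z-score for each replicate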. Reading the numbers: TNF reporter robust z-score: higher = stronger TNF reporter response to LPS. Rule for the call: 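Each well counts as active if its z-score is over 2.8 or under -1.5; controls are left without a call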.
The whole screen tested about 18,000 reagents; shown is a part drawn at random. Of all reagents, about 2,900 (16%) were called active. 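Calls are made per well; low scores hint the gene aids the LPS response, high scores that it dampens it.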 Repeated entries: four replicate wells of each siRNA pool.

gene symbol	TNF reporter robust z-score	Outcome
ZBTB2 (GeneID 57621)	-0.64	inactive
ZBTB2 (GeneID 57621)	-0.94	inactive
ZBTB2 (GeneID 57621)	-1.03	inactive
ZBTB2 (GeneID 57621)	2.23	inactive
FOXN2 (GeneID 3344)	-1.29	inactive
FOXN2 (GeneID 3344)	-0.55	inactive
FOXN2 (GeneID 3344)	-0.69	inactive
FOXN2 (GeneID 3344)	-0.87	inactive
TRIAP1 (GeneID 51499)	-0.7	inactive
TRIAP1 (GeneID 51499)	-0.2	inactive
TRIAP1 (GeneID 51499)	-0.3	inactive
TRIAP1 (GeneID 51499)	-0.62	inactive
SLC2A6 (GeneID 11182)	-0.61	inactive
SLC2A6 (GeneID 11182)	-0.34	inactive
SLC2A6 (GeneID 11182)	-0.43	inactive
SLC2A6 (GeneID 11182)	-0.23	inactive
ICAM1 (GeneID 3383)	-1.04	inactive
ICAM1 (GeneID 3383)	-1.35	inactive
ICAM1 (GeneID 3383)	-1.46	inactive
ICAM1 (GeneID 3383)	-1.47	inactive
GUCY2EP (GeneID 390226)	-0.07	inactive
GUCY2EP (GeneID 390226)	0.26	inactive
GUCY2EP (GeneID 390226)	0.06	inactive
GUCY2EP (GeneID 390226)	1.04	inactive
GNAZ (GeneID 2781)	1.15	inactive
GNAZ (GeneID 2781)	2.77	inactive
GNAZ (GeneID 2781)	1.43	inactive
GNAZ (GeneID 2781)	2.91	active
CEP83 (GeneID 51134)	-0.44	inactive
CEP83 (GeneID 51134)	-0.6	inactive
CEP83 (GeneID 51134)	-0.95	inactive
CEP83 (GeneID 51134)	-1.34	inactive
PRR20A (GeneID 122183)	-1.08	inactive
PRR20A (GeneID 122183)	1.21	inactive
PRR20A (GeneID 122183)	0.61	inactive
PRR20A (GeneID 122183)	1.02	inactive
OR5AP2 (GeneID 338675)	0.61	inactive
OR5AP2 (GeneID 338675)	-0.31	inactive
OR5AP2 (GeneID 338675)	0.7	inactive
OR5AP2 (GeneID 338675)	-0.45	inactive
EPO (GeneID 2056)	-1.29	inactive
EPO (GeneID 2056)	-0.53	inactive
EPO (GeneID 2056)	-1.27	inactive
EPO (GeneID 2056)	-1.1	inactive
ANAPC11 (GeneID 51529)	0.88	inactive
ANAPC11 (GeneID 51529)	-0.88	inactive
ANAPC11 (GeneID 51529)	-0.68	inactive
ANAPC11 (GeneID 51529)	0.8	inactive
